A short description of the assay: qHTS Assay for Lipid Storage Modulators in Drosophila S3 Cells.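 For cell number change: cells counted by Cell Tracker Red CMTPX staining in the red channel.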 To be noted: BODIPY lipid droplet fluorescence, 18-24 h; for cell number change: measured here: cell count max response, cells fed with added oleic acid. A digest of the protocol: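 Laser-scanning cytometry quantifies lipid droplet accumulation (500–530 nm total intensity; droplet/cell object ratio) in oleic acid-fed (400 uM added) Drosophila S3 cells treated with a concentration series. 20 uM Triacsin C defined 100% inhibition.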
On the technique in general: In qHTS, concentration-response curves come from the screen itself.

The mark [1] stands for this setting: measured here: cell number channel AC50, cells fed with added oleic acid.
The mark [2] stands for this setting: measured here: lipid fluorescence (Fed channel) AC50, cells fed with added oleic acid.

The list shows a part of the results. These are further read-outs of the screen, such as a control signal, another cell line or another target. No call is given for them. Compounds called inactive in the main read-out are mostly missing here. Words in brackets tell the shape of the fitted curve; partial curves, single points and poor fits give uncertain potencies.

The term AC50 denotes the concentration at which the activity in the assay is half-maximal. The low end stands for greater potency, the high end for weaker potency. `COc1ccc(C)cc1-n1nnnc1SC/C(O)=C(\C#N)c1nc2ccccc2[nH]1`: the AC50 reads like this: under setting [1], 1.3 µM [rising, full curve]; under setting [2], 1.84 µM [rising, partial curve].

Consider `Cc1nc2ccccn2c1C(=O)N/N=C/c1ccc(CNC(=O)C(=O)Nc2ccccc2)o1`, for which the AC50 under setting [2] is 29.1 µM [rising, partial curve]. In the case of `Cc1cc(NS(=O)(=O)c2ccc(C(C)C)cc2)no1`, the cell number change is -4.7%. Besides, the AC50 under setting [2] is 29.1 µM [rising, single point]. Take `CCOC(=O)c1sc(NC(=O)CCN2CCC(C)CC2)c(C(=O)OCC)c1C`: the AC50 was 6.51 µM [rising, single point] under setting [1] and 6.51 µM [rising, single point] under setting [2]. Take `CCOCCCNC(=O)c1oc2ccc3c(c2c1C)C(O)CC(C)(C)O3` (configuration not stated): the cell number change was -3.55%. For `CC(C)C[C@H](NC(=O)[C@@H]1Cc2c([nH]c3ccccc23)C2c3ccccc3C(=O)N21)C(=O)N1CCC[C@@H]1C(=O)O` (some centres not stated), the cell number change came to 15.9%. Also, the AC50 under setting [2] is 1.3 µM [falling, partial curve].

Take `O=C(CSc1nnc2ccccn12)N1CCc2ccccc21`: the cell number change is -31.3%. The concentration at half-maximal activity (AC50) under setting [1] was 3.26 µM [falling, full curve]. Consider `COc1ccccc1NC(=S)N(Cc1ccc(C)cc1)Cc1ccccn1`, for which the cell number change was -14.1%. Also, under setting [2], the AC50 was 0.82 µM [falling, partial curve, poor fit].

`CC1(C)CC(NC(=O)CSc2ccccc2)CC(C)(C)N1`: the cell number change turned out to be 24.6%. Take `Cc1ccc(NC(=O)CCNS(=O)(=O)c2ccccc2F)cc1S(=O)(=O)N1CCOCC1`: the AC50 under setting [2] is 20.6 µM [falling, single point]. As to `Cc1ccc(N2CC(C)Cn3c2nc2c3c(=O)n(CC(=O)OCc3ccccc3)c(=O)n2C)cc1C` (configuration not stated), the cell number change was 16.8%. Further, the AC50 under setting [1] was 3.66 µM [rising, single point]. The AC50 under setting [2] was 2.31 µM [rising, partial curve]. For the molecule `CN1CCN(NC(=O)c2cccs2)CC1`, the cell number change was -93.2%. The AC50 under setting [1] is 14.6 µM [falling, partial curve].

`CN(c1ccc(OCC(=O)N2CCC(C(N)=O)CC2)cc1)S(=O)(=O)c1cccs1`: the cell number change worked out at 16.1%. Further, the AC50 under setting [1] is 1.3 µM [falling, partial curve]. Consider `O=C(CSc1nnc(NC(=O)c2ccccc2F)s1)NCC1CCCO1` (configuration not stated), for which the cell number change was -9.07%. For the same molecule, under setting [2], the AC50 was 29.1 µM [rising, single point]. On to `O=C(COC(=O)c1ccc2ncsc2c1)NC(=O)NCc1ccccc1`, for which the cell number change was -33.6%. Besides, under setting [1], the AC50 is 1.3 µM [falling, partial curve]. As to `O=C1NCCCCC1NC1CC(=O)N(c2ccccc2)C1=O` (configuration not stated), the cell number change was -9.53%. Besides, under setting [2], the AC50 was 0.116 µM [falling, full curve].

In the case of `Cc1ccc(N(CC(=O)Nc2cc(Cl)ccc2Oc2ccccc2)S(C)(=O)=O)c(C)c1`, the cell number change amounted to 96.3%. The AC50 under setting [1] was 29.1 µM [rising, single point]. Further, the AC50 under setting [2] is 29.1 µM [rising, single point].
